Reference: US20160222458A1
No constants are given. Whether binding was seen depends on the method and setting. Some binding calls cover weakened binding; strength is not graded here. Where a sequence is shown, tags or fusion partners need not be part of it.

The chains behind the UniProt entries cited, without tags or fusion partners.
UniProt Q14680: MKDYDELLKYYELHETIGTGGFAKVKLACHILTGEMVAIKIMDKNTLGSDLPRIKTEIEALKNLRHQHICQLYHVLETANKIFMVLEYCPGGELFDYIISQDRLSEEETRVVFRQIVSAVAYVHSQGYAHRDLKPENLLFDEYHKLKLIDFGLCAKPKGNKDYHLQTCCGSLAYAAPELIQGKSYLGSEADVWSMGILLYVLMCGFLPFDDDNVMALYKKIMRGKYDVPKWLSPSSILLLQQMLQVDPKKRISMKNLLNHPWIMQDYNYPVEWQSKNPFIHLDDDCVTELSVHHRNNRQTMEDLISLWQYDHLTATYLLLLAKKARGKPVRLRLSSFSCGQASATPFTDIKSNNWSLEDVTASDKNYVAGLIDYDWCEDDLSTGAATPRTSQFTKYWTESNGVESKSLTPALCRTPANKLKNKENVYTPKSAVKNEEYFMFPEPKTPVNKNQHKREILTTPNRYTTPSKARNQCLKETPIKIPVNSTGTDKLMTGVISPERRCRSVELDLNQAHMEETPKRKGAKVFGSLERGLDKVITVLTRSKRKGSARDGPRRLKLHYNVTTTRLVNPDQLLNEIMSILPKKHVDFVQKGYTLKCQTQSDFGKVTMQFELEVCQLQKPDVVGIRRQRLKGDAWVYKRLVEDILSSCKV

Target: Maternal embryonic leucine zipper kinase (MELK) (UniProt Q14680)
Assay: co-localisation by confocal immunofluorescence in MDA-MB-436 cells (GFP-PRR11); complex inferred

binding: binds
B1: GFP-PRR11 (protein, UniProt Q96HE9 1-360, looked up, not shown: large carriers)
chain: MPKFKQRRRKLKAKAERLFKKKEASHFQSKLITPPPPPPSPERVGISSIDISQSRSWLTSSWNFNFPNIRDAIKLWTNRVWSIYSWCQNCITQSLEVLKDTIFPSRICHRELYSVKQQFCILESKLCKLQEALKTISESSSCPSCGQTCHMSGKLTNVPACVLITPGDSKAVLPPTLPQPASHFPPPPPPPPLPPPPPPLAPVLLRKPSLAKALQAGPLKKDGPMQITVKDLLTVKLKKTQSLDEKRKLIPSPKARNPLVTVSDLQHVTLKPNSKVLSTRVTNVLITPGKSQMDLRKLLRKVDVERSPGGTPLTNKENMETGTGLTPVMTQALRRKFQLAHPRSPTPTLPLSTSSFDEQN
